# Assay results from the supplement of paper PMC10849652.
# By UniProt entry, the sequences of proteins in these tests, tags left out. Where a name states a change or a piece, a line headed by the entry shows the natural chain unless it says otherwise.
# UniProt Q01432: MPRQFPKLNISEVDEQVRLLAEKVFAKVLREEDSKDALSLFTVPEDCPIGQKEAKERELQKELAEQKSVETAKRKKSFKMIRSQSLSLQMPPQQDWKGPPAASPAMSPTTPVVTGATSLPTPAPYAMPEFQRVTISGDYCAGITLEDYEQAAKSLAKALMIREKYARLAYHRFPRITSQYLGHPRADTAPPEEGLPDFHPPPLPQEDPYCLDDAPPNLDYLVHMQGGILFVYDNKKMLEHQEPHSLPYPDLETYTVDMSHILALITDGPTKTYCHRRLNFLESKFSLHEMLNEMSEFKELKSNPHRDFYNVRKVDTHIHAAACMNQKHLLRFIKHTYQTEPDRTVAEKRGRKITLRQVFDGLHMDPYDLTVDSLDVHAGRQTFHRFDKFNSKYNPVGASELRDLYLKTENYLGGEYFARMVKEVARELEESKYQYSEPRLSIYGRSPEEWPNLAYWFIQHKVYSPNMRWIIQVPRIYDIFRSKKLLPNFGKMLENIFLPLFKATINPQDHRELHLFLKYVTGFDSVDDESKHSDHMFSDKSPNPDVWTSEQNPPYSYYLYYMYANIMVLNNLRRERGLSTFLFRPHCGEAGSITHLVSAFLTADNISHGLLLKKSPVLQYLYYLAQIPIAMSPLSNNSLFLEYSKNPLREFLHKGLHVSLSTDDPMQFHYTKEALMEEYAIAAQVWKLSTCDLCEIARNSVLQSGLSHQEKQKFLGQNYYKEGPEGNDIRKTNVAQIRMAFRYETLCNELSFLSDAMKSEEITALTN
# UniProt P30038: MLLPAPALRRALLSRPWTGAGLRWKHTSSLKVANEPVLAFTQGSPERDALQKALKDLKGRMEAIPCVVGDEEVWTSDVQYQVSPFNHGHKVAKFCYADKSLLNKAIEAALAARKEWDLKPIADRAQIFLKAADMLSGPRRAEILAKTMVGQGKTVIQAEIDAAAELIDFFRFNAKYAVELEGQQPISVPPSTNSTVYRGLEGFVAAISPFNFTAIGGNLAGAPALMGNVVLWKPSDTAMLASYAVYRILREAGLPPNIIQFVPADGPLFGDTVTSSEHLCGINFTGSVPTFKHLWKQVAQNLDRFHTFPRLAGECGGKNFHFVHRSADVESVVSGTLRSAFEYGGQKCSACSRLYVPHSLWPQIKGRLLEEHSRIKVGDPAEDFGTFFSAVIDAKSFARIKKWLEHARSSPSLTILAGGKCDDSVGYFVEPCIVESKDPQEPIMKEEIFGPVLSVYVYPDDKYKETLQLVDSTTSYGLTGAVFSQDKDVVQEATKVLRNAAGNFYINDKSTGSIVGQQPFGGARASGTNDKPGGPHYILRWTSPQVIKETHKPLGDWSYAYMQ
# UniProt Q9NUQ2: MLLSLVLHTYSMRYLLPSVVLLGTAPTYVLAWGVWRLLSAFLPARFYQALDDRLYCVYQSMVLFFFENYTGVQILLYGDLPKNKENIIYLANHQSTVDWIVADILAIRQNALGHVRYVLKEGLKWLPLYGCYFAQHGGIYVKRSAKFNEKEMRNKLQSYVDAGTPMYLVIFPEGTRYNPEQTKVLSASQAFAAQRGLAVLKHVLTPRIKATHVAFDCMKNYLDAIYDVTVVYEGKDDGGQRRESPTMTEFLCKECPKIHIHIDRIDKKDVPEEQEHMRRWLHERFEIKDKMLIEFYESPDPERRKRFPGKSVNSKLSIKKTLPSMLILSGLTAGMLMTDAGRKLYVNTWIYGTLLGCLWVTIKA
# UniProt Q96F25: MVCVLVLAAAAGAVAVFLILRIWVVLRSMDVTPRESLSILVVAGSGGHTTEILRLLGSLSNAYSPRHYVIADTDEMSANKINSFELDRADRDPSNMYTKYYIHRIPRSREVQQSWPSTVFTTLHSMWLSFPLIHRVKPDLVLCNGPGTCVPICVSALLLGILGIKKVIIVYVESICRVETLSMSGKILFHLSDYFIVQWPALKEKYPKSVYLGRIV
# UniProt P55196: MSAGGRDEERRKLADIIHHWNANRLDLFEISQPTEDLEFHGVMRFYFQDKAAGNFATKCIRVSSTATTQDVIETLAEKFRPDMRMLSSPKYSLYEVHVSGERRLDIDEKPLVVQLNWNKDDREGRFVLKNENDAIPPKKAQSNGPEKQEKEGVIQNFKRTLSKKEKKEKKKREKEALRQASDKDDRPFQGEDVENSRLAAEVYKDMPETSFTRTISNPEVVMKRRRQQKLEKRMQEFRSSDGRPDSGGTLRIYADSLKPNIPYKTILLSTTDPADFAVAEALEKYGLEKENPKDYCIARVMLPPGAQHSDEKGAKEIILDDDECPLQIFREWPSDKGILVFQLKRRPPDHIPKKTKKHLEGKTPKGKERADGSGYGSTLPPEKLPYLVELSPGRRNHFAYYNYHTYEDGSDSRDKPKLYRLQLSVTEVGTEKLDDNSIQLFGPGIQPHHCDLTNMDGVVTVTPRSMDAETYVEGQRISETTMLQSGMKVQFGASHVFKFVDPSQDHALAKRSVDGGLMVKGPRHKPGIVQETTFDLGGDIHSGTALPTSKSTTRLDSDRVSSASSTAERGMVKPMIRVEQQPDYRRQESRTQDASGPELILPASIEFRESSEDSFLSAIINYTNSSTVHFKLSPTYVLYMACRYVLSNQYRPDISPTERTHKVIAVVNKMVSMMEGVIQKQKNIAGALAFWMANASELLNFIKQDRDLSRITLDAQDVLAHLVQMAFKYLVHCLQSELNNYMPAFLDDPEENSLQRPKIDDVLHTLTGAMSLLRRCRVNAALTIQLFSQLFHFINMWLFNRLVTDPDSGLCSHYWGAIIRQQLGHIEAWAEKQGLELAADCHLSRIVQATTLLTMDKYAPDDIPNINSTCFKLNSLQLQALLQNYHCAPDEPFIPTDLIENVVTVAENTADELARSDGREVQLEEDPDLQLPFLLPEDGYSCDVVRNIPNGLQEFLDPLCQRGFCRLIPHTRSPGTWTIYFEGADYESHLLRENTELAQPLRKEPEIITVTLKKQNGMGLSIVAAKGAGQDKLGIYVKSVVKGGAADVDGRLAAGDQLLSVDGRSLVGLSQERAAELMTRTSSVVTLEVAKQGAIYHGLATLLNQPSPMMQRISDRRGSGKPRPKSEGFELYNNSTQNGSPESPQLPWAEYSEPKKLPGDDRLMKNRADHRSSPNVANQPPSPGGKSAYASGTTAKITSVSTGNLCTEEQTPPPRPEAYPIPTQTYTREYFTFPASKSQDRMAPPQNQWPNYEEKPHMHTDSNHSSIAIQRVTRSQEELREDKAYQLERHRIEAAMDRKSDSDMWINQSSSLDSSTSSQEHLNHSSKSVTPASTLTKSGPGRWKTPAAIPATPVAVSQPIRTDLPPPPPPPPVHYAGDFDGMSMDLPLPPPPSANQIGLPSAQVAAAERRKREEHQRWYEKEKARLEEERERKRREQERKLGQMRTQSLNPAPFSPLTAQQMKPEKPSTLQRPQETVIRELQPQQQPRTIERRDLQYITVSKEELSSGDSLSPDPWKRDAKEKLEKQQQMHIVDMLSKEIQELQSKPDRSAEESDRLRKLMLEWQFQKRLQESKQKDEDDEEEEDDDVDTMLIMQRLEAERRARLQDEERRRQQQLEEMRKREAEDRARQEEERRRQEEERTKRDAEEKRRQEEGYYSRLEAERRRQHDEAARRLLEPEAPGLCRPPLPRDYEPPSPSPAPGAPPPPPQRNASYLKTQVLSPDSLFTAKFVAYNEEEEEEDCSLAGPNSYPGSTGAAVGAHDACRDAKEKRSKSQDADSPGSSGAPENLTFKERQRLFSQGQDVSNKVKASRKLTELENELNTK
# UniProt P30837: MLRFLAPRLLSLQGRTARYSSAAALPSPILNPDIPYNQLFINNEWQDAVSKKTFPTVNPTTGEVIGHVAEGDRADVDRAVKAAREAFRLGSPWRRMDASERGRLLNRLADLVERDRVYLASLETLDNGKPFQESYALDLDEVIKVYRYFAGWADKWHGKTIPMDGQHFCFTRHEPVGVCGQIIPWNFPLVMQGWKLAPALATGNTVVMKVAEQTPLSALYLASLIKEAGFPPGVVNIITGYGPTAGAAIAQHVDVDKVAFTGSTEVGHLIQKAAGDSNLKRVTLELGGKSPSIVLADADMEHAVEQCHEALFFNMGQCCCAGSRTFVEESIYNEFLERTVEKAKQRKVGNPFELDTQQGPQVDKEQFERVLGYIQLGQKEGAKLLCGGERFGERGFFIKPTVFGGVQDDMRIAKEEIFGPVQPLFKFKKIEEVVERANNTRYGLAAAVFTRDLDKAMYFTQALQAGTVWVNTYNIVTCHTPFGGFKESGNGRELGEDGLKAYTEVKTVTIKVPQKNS
# UniProt Q9Y303: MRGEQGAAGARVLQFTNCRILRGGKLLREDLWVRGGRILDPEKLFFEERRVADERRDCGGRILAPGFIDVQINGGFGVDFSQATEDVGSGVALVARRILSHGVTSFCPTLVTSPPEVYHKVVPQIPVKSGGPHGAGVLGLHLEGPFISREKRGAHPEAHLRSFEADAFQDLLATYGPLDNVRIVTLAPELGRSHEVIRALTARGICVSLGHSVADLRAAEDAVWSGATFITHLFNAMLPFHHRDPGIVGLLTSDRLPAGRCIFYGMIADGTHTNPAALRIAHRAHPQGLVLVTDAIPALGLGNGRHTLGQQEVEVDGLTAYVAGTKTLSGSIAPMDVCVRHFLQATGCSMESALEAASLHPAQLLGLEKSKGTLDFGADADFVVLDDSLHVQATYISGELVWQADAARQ
# UniProt O43823: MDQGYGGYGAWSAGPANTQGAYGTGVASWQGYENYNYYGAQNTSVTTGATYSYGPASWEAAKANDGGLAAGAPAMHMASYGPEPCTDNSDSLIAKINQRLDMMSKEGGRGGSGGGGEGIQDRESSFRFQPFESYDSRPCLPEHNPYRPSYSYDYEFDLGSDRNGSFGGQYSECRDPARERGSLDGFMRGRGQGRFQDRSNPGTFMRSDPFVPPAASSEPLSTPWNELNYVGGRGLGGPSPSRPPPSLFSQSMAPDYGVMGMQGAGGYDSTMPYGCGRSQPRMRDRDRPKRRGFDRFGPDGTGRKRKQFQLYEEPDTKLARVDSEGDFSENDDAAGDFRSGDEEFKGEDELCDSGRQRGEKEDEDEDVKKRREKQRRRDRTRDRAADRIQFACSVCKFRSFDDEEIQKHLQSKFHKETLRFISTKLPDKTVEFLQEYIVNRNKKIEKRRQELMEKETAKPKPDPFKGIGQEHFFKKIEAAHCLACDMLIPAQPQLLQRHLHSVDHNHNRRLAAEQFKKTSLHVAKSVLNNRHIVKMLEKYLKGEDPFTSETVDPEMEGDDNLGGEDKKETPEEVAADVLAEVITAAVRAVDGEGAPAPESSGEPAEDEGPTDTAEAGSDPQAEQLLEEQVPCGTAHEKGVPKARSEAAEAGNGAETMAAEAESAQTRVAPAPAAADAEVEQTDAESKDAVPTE
# UniProt O00116: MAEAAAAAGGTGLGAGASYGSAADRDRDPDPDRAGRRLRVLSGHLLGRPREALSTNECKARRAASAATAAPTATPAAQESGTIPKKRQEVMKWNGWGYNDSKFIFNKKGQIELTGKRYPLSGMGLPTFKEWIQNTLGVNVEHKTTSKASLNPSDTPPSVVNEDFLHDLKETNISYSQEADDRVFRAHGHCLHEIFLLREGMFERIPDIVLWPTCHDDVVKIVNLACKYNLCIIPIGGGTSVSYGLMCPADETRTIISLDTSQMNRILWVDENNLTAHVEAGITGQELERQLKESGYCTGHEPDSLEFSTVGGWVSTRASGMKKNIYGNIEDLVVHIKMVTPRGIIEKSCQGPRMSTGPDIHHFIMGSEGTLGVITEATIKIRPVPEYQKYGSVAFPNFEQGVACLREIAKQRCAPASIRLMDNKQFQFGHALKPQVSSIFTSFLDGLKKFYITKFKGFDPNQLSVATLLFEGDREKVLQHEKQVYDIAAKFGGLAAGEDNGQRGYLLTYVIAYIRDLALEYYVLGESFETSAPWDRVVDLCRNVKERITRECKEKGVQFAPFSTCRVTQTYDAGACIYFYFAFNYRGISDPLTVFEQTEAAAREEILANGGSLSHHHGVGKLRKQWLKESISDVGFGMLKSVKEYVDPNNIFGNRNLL
# The list shows a part of the results.
# Key:
# Assay in all cases: log2 fold change, soluble protein after heating vs DMSO (PISA); higher = thermal stabilisation; K562 cells, 10 uM, 30 min; active = over 0.2 and 3.5 SD of the protein, either way, in both replicates (recomputed)
# [1] = compound: C1=CC=C(C=C1)[C@H](COC2=CC3=C(C=C2)NC(=O)N3)NC(=O)C4=CC=CN(C4=O)CC5=CC(=C(C=C5)F)F
# Outline: (§1)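 K562 cells at 2×10^6 cells/mL were given 10 μM compound for 30 min. Aliquots then went through 3 min of heating across 48°C-58°C, were pooled, and were extracted in PBS with 0.5% NP-40 at 4°C, and the supernatant after 21,000xg for 90 min was quantified by TMTpro 16plex LC-MS/MS with channel sums equalised. Thermal stability relative to control samples, from duplicates, is given as log2 fold change.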
# [2] = compound: CC1=C(SC2=C1C(=N[C@H](C3=NN=C(N32)C)CC(=O)N)C4=CC=C(C=C4)Cl)C
# Outline: as §1
# [3] = compound: CC1=C2C(=CC=C1)N=C(N(C2=O)C3=CC=CC=C3C)CN4C=NC5=C(N=CN=C54)N
# Outline: as §1
# [4] = compound: Cc1sc2c(c1C)C(c1ccc(Cl)cc1)=N[C@@H](CC(=O)OC(C)(C)C)c1nnc(C)n1-2
# Outline: as §1
# [5] = compound: c1ccc([C@@H]2C[C@H]2NC2CCNCC2)cc1
# Outline: as §1
Target,log2 fold change [1],log2 fold change [2],log2 fold change [3],log2 fold change [4],log2 fold change [5]
AMPD3 isoform 4 (UniProt Q01432),inactive: -0.034,inactive: 0.031,inactive: 0.064,inactive: 0.023,inactive: -0.051
ALDH4A1 (UniProt P30038),inactive: 0.006,inactive: 0.047,inactive: 0.011,inactive: -0.012,inactive: -0.066
AGPAT5 (UniProt Q9NUQ2),inactive: -0.015,inactive: 0.064,inactive: 0.007,inactive: -0.008,inactive: -0.025
ALG14 (UniProt Q96F25),inactive: -0.008,inactive: 0.019,inactive: 0.241,inactive: 0.051,inactive: 0.006
AFDN isoform 1 (UniProt P55196),inactive: 0.038,inactive: -0.119,inactive: 0.029,–,inactive: 0.177
ALDH1B1 (UniProt P30837),inactive: 0.037,inactive: 0.064,inactive: 0.013,inactive: -0.047,inactive: 0.009
AMDHD2 isoform 3 (UniProt Q9Y303),inactive: -0.02,inactive: 0.019,inactive: 0.108,inactive: -0.034,inactive: -0.015
AKAP8 (UniProt O43823),inactive: 0.012,inactive: -0.03,inactive: 0.105,inactive: -0.018,active: 0.347
AGPS (UniProt O00116),inactive: -0.046,inactive: 0.081,inactive: 0.079,inactive: -0.031,inactive: -0.051
